Measured values published in PMC11209018.

By UniProt entry, the sequences of proteins in these tests, tags left out. Where a name states a change or a piece, a line headed by the entry shows the natural chain unless it says otherwise.
UniProt Q01167: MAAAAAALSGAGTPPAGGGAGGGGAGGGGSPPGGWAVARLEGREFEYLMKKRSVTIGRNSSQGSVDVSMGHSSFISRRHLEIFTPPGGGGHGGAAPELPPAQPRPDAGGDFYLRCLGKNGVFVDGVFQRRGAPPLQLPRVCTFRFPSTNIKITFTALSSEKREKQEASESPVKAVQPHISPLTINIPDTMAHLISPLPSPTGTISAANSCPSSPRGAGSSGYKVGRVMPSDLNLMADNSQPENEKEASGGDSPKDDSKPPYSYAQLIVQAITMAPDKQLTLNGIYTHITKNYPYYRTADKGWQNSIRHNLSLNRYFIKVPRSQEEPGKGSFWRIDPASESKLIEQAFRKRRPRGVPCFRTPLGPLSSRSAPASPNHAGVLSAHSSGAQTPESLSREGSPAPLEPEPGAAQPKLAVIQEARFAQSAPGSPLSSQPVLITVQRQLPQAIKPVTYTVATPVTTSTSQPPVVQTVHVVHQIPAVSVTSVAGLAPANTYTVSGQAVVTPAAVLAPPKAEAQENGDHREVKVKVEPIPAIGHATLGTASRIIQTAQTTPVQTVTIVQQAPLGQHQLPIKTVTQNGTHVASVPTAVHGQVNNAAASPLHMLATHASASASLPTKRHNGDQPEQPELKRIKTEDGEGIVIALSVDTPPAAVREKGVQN

Target: FOXK2-Flag ΔFHD (UniProt Q01167)
Test: co-IP; cells (BEAS-2B by the legend, HEK-293T by the methods) cotransfected for 48 h with FBXO24-V5 and FOXK2-Flag Wt or deletion plasmids; lysis Buffer A (PBS, 0.2% SDS, 0.05% Triton); anti-Flag M2 magnetic beads, RT, 30 min; immunoblot for FBXO24

binding: binds
B1: FBXO24-V5 (protein, UniProt O75426 1-580)
chain: MGEKAVPLLRRRRVKRSCPSCGSELGVEEKRGKGNPISIQLFPPELVEHIISFLPVRDLVALGQTCRYFHEVCDGEGVWRRICRRLSPRLQDQGSGVRPWKRAAILNYTKGLYFQAFGGRRRCLSKSVAPLLAHGYRRFLPTKDHVFILDYVGTLFFLKNALVSTLGQMQWKRACRYVVLCRGAKDFASDPRCDTVYRKYLYVLATREPQEVVGTTSSRACDCVEVYLQSSGQRVFKMTFHHSMTFKQIVLVGQETQRALLLLTEEGKIYSLVVNETQLDQPRSYTVQLALRKVSHYLPHLRVACMTSNQSSTLYVTDQGGVYFEVHTPGVYRDLFGTLQAFDPLDQQMPLALSLPAKILFCALGYNHLGLVDEFGRIFMQGNNRYGQLGTGDKMDRGEPTQVCYLQRPITLWCGLNHSLVLSQSSEFSKELLGCGCGAGGRLPGWPKGSASFVKLQVKVPLCACALCATRECLYILSSHDIEQHAPYRHLPASRVVGTPEPSLGARAPQDPGGMAQACEEYLSQIHSCQTLQDRTEKMKEIVGWMPLMAAQKDFFWEALDMLQRAEGGGGGVGPPAPET

No constants are given. Whether binding was seen depends on the method and setting. In cells and extracts the contact can be indirect. Binding calls can cover weak binding; strength is not graded here. Sequences can lack the tags named with a protein.
